According to patent US20140255921:

How the values were obtained:
Test in all cases: binding assay
[1] = system: T1, Hel308 Mhu (Methanospirillum hungatei); settings: controlled movement through MspA nanopore; 400 mM KCl, 1 mM ATP, Mg; purified recombinant protein; label: 3' cholesterol on SEQ 60
T1 sequence: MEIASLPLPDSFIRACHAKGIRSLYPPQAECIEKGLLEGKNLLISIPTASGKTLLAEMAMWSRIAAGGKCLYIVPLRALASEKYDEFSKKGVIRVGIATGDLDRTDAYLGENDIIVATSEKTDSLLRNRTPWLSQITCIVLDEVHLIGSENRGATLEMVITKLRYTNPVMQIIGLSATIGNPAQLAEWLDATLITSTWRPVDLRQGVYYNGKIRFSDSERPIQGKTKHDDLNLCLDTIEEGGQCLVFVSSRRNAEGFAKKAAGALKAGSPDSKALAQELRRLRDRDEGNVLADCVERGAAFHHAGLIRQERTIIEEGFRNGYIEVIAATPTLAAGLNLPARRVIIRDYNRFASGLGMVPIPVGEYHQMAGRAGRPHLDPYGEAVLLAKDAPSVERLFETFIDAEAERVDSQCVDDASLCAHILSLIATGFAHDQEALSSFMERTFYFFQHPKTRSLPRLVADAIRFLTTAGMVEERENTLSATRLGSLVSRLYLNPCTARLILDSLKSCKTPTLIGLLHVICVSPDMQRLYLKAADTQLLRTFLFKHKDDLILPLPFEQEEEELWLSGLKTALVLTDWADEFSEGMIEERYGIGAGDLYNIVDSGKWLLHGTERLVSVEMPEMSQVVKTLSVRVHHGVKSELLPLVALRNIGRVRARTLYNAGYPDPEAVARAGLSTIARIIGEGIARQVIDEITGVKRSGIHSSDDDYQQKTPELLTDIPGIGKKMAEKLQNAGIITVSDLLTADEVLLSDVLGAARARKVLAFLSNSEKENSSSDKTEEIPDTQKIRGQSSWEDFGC

[2] = target: T2, Hel308 Mbu (Methanococcoides burtonii) (UniProt Q12WZ6); settings: helicase-controlled DNA movement through MspA nanopore; 400 mM-2 M KCl, 1 mM ATP, 1 mM MgCl2, pH 8.0; purified recombinant protein; protein details: ONLP3302; label: 3' cholesterol on SEQ 60
T2 sequence: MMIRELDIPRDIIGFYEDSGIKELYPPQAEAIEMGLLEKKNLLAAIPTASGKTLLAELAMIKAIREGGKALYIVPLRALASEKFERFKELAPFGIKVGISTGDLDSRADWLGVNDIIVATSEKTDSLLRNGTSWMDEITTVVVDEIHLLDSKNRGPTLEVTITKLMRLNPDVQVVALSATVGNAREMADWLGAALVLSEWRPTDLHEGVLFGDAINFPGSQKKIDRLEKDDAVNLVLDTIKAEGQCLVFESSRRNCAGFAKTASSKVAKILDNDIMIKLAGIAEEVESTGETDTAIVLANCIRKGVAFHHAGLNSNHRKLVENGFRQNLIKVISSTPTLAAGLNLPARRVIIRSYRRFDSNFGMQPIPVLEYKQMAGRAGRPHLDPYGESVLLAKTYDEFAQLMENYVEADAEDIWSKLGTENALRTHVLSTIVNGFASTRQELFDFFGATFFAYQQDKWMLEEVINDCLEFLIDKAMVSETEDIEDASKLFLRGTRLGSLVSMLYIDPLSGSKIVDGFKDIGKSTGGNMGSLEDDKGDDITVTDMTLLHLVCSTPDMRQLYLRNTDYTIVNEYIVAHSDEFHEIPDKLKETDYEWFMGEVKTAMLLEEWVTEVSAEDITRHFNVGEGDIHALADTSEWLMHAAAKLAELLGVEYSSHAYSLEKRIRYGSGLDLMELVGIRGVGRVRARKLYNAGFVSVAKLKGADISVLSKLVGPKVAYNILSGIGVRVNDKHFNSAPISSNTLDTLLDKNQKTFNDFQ

[3] = system: T3, Hel308 Mma (Methanococcus maripaludis); settings: controlled movement through MspA nanopore; 400 mM KCl, 1 mM ATP, Mg; purified recombinant protein; label: 3' cholesterol on SEQ 60
T3 sequence: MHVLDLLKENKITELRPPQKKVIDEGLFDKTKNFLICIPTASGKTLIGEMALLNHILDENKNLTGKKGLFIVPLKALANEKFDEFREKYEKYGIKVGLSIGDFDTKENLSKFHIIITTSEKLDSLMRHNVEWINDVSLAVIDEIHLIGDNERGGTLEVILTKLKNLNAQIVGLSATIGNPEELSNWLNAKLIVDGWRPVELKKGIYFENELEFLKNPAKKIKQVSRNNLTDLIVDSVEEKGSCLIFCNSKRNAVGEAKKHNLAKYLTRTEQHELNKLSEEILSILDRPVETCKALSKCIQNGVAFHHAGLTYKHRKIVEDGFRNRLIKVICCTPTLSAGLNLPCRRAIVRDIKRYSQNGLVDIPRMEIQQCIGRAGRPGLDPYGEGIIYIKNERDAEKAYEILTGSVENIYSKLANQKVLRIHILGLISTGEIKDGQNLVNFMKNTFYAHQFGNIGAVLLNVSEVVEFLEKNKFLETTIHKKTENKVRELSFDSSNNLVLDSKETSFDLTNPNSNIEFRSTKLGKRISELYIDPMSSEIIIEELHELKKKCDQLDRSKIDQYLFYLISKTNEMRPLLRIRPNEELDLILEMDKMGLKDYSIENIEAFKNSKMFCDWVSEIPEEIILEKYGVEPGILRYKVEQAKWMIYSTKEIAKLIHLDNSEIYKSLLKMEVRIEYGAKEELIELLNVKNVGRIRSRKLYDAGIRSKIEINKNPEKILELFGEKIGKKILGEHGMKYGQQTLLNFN

[4] = system: T4, Hel308 Mok (Methanothermococcus okinawensis); settings: controlled movement through MspA nanopore; 400 mM KCl, 1 mM ATP, Mg; purified recombinant protein; label: 3' cholesterol on SEQ 60
T4 sequence: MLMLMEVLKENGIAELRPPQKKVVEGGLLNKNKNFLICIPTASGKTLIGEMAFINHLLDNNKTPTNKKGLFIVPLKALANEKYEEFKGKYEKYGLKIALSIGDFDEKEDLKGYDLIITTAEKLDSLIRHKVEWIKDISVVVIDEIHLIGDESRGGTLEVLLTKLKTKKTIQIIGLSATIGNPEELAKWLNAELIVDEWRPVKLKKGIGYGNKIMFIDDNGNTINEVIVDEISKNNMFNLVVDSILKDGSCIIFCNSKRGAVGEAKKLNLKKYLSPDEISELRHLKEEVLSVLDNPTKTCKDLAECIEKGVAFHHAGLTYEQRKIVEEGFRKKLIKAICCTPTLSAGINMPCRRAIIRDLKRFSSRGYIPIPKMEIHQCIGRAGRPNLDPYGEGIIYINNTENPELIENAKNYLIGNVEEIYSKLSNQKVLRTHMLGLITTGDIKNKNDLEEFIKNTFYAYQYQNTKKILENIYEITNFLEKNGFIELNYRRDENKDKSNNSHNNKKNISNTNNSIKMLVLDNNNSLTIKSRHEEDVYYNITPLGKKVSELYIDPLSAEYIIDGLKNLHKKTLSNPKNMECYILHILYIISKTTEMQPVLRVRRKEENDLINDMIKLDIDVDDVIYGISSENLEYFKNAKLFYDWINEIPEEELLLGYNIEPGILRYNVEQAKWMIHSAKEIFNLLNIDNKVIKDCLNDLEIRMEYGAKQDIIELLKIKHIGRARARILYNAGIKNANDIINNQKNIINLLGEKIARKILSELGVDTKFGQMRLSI

Measured: binding result

TTTTTTTTTTTTTTTTTTTTTTTTTTTTTTTTTTTTTTTTTTTTTTTTTTGGTTGTTTCTGTTGGTGCTGATATTGCTTTTGATGCCGACCCTAAATTTTTTGCCTGTTTGGTTCGCTTTGAGTCTTCTTCGGTTCCGACTACCCTCCCGACTGCCTATGATGTTTATCCTTTGAATGGTCGCCATGATGGTGGTTATTATACCGTCAAGGACTGTGTGACTATTGACGTCCTTCCCCGTACGCCGGGCAATAACGTTTATGTTGGTTTCATGGTTTGGTCTAACTTTACCGCTACTAAATGCCGCGGATTGGTTTCGCTGAATCAGGTTATTAAAGAGATTATTTGTCTCCAGCCACTTAAGTGAGGTGATTTATGTTTGGTGCTATTGCTGGCGGTATTGCTTCTGCTCTTGCTGGTGGCGCCATGTCTAAATTGTTTGGAGGCGGTC / GCAATATCAGCACCAACAGAAACAACCTTTTTTTTTTTTTTTTTTTTTTTTTTTTTT [400mer PhiX ssDNA with 50T leader and annealed primer]
binds: all assays above

Construct, isoform or probe ends are uncertain for at least one entry. Protein sequences can lack the tags named with them.
